Article PMC9542535
No constants are given. Whether binding was seen depends on the method and setting. In cells and extracts the contact can be indirect. A yes stands for co-enrichment or nearness to the bait. Other partners may have been found. For part of these data: A no says only that the protein was not detected with the bait. Where a sequence is shown, tags or fusion partners need not be part of it.

Tests used:
[1] = molecular target: T1, VnfA3 with a C-terminal triple-FLAG tag (strain CAA025) (Azotobacter vinelandii) (UniProt C1DIZ6); test: affinity purification with mass spectrometry; A. vinelandii cultures grown in the presence of V (1 μM) or in its absence (Fe-only conditions), cross-linked in vivo with 1% formaldehyde; 3xFLAG-tagged bait recovered from lysate with anti-FLAG magnetic beads; eluted proteins identified by LC-MS/MS; non-tagged wild-type strain DJ as control
T1 sequence: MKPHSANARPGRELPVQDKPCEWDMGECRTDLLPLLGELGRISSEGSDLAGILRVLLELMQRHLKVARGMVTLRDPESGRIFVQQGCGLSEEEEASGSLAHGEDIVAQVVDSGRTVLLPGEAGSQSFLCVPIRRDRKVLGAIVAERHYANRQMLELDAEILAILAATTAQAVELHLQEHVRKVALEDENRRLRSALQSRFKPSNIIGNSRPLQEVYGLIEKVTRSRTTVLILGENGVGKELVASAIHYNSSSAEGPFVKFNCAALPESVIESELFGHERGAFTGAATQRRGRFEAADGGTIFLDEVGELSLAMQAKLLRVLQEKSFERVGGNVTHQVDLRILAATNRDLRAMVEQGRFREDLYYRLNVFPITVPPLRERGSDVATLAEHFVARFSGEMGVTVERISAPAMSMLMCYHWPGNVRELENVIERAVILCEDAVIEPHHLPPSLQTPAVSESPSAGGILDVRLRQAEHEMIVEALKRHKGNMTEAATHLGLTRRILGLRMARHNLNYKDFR

[2] = molecular target: T1, VnfA3 with a C-terminal triple-FLAG tag (strain CAA025) (Azotobacter vinelandii); test: affinity purification with mass spectrometry; as a2, only cultures grown in the presence of V (1 μM); in vivo formaldehyde cross-linking, anti-FLAG magnetic beads, LC-MS/MS
[3] = molecular target: T2, VnfA1 with a C-terminal triple-FLAG tag (strain CAA005) (Azotobacter vinelandii) (UniProt P12627); test: affinity purification with mass spectrometry; A. vinelandii cultures grown in the presence of V (1 μM) or in its absence (Fe-only conditions), cross-linked in vivo with 1% formaldehyde; 3xFLAG-tagged bait recovered from lysate with anti-FLAG magnetic beads; eluted proteins identified by LC-MS/MS; non-tagged wild-type strain DJ as control
T2 sequence: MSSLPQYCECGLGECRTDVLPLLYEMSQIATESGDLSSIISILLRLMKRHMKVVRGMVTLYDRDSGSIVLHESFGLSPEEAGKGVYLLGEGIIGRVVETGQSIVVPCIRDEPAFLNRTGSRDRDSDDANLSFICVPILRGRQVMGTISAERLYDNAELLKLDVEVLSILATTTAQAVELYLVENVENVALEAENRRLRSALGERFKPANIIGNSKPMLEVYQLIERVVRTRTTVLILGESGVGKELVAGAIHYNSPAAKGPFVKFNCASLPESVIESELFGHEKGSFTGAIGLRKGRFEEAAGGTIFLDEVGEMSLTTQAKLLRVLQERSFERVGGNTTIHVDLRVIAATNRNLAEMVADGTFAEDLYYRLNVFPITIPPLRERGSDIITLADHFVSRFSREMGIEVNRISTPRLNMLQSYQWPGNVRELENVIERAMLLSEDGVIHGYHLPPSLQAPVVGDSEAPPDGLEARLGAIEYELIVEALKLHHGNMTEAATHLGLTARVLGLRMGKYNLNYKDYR

Row | Molecule | binding [1] | binding [2] | binding [3]
1 | VnfZ (Avin_47110), endogenous in A. vinelandii | binds | no binding (only cells grown in the presence of V) | 
2 | VnfA1, endogenous in A. vinelandii (protein, UniProt P12627 1-522) MSSLPQYCECGLGECRTDVLPLLYEMSQIATESGDLSSIISILLRLMKRHMKVVRGMVTLYDRDSGSIVLHESFGLSPEEAGKGVYLLGEGIIGRVVETGQSIVVPCIRDEPAFLNRTGSRDRDSDDANLSFICVPILRGRQVMGTISAERLYDNAELLKLDVEVLSILATTTAQAVELYLVENVENVALEAENRRLRSALGERFKPANIIGNSKPMLEVYQLIERVVRTRTTVLILGESGVGKELVAGAIHYNSPAAKGPFVKFNCASLPESVIESELFGHEKGSFTGAIGLRKGRFEEAAGGTIFLDEVGEMSLTTQAKLLRVLQERSFERVGGNTTIHVDLRVIAATNRNLAEMVADGTFAEDLYYRLNVFPITIPPLRERGSDIITLADHFVSRFSREMGIEVNRISTPRLNMLQSYQWPGNVRELENVIERAMLLSEDGVIHGYHLPPSLQAPVVGDSEAPPDGLEARLGAIEYELIVEALKLHHGNMTEAATHLGLTARVLGLRMGKYNLNYKDYR | binds |  | 
3 | VnfA2, endogenous in A. vinelandii (protein, UniProt C1DPS6 1-493) MGECHTDLLPLLGELGRIPSEGSDLAGILRVLLELMQRHLKMARGMVTLRDPESGRIFVQQGCGLSEEEEASGYLALGEDIVAQAVDSGRTVVLPGEAGNQSLLCVPIRRDRKVLGTIVAERHYANRRMLELDAEILAILAALTAQAVELHLQEHVRKVALEDENHRLHSALQSRFKPSSIIGSSRPLQEVHRLIEKVARSRATVLILGESGVGKELVASAIHYNGSNAEGPFVKFNCAALPESVIESELFGHEYGAFTGAATPRRGRFEAADGGTIFLDEVGELSPAMQAKLLRVLQEKSFERVGGNVTHQVDLRILAATSRDLRAMVEQSRFRGDLYYRLNVFPISVPPLRERDSDIAILAEHFVARLSSRMGIPAKRISTPAMGMLMCYHWPGNVRELENVIERAVLLCEGAVIEPHHLPPSLQTPAVSESPSAGGILDVRLGQAECELIAEALKRHKGNMTESAAHLGLTRRVLGLRMARHNLNHKEFR | no binding |  | binds
4 | VnfA3, endogenous in A. vinelandii (protein, UniProt C1DIZ6 1-517) MKPHSANARPGRELPVQDKPCEWDMGECRTDLLPLLGELGRISSEGSDLAGILRVLLELMQRHLKVARGMVTLRDPESGRIFVQQGCGLSEEEEASGSLAHGEDIVAQVVDSGRTVLLPGEAGSQSFLCVPIRRDRKVLGAIVAERHYANRQMLELDAEILAILAATTAQAVELHLQEHVRKVALEDENRRLRSALQSRFKPSNIIGNSRPLQEVYGLIEKVTRSRTTVLILGENGVGKELVASAIHYNSSSAEGPFVKFNCAALPESVIESELFGHERGAFTGAATQRRGRFEAADGGTIFLDEVGELSLAMQAKLLRVLQEKSFERVGGNVTHQVDLRILAATNRDLRAMVEQGRFREDLYYRLNVFPITVPPLRERGSDVATLAEHFVARFSGEMGVTVERISAPAMSMLMCYHWPGNVRELENVIERAVILCEDAVIEPHHLPPSLQTPAVSESPSAGGILDVRLRQAEHEMIVEALKRHKGNMTEAATHLGLTRRILGLRMARHNLNYKDFR |  |  | binds
